Substitutions are numbered along the chain they refer to. These are yes or no findings as the source states them, for the method shown. In cells and extracts the contact can be indirect. Some results given as binding are weak or reduced against the parent protein; the word gives no strength.
Legend:
[1] = target: T1, Cdc14A (active form; construct of Supplementary Figures S2 and S8 not given) (human) (UniProt Q9UNH5); assay: co-IP; co-immunoprecipitation from cellular mitotic extracts (Supplementary Figure S8)
T1 sequence: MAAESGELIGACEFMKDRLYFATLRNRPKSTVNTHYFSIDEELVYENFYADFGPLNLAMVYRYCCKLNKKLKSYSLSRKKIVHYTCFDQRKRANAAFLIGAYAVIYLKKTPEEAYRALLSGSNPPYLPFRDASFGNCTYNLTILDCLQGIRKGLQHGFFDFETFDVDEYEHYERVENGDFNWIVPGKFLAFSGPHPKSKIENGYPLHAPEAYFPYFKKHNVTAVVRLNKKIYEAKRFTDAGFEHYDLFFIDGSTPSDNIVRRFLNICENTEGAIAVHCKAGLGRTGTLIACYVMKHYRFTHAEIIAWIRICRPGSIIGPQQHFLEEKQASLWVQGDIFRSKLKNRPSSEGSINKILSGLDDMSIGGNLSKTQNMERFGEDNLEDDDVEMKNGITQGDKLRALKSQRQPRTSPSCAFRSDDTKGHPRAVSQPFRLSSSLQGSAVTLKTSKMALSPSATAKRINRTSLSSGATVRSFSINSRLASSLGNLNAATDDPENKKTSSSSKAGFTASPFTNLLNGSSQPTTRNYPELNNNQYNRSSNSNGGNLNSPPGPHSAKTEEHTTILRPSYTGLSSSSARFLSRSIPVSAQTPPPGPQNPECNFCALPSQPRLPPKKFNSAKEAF

The chains behind the UniProt entries cited, without tags or fusion partners.
UniProt Q9UM11: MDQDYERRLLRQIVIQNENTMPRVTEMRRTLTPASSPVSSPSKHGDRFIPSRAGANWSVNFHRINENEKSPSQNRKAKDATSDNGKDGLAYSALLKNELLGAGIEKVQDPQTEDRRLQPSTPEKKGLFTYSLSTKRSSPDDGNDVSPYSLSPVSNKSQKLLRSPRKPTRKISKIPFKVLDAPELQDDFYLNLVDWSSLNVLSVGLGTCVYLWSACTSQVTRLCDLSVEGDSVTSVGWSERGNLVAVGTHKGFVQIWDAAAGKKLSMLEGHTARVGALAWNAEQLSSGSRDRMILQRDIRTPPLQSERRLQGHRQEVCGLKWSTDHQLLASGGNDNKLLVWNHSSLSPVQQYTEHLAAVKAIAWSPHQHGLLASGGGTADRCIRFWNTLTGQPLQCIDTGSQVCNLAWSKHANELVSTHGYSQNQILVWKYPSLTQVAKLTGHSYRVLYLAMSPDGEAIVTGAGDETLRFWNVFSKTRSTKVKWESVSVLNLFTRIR
UniProt P67775: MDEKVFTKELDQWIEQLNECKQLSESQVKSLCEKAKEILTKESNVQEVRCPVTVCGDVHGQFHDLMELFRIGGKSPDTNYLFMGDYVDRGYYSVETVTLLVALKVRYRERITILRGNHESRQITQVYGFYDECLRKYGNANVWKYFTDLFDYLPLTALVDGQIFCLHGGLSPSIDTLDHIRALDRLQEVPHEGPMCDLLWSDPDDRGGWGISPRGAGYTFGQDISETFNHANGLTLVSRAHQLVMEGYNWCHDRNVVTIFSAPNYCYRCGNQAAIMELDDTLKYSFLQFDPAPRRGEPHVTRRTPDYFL

[2] = target: T1, Cdc14A (active form; construct of Supplementary Figures S2 and S8 not given) (human); assay: co-IP; method not named in the text for this pair; 'interacts in vivo'; shown in Supplementary Figure S2
[3] = target: T2, Cdc14A-3A mutant (construct of Supplementary Figure S8 not given) (human) (UniProt Q9UNH5); assay: co-IP; co-immunoprecipitation from cellular mitotic extracts (Supplementary Figure S8)
T2 sequence: T1 sequence with S411A, S453A, S549A

Substance	binding [1]	binding [2]	binding [3]
Cdh1, the activator of APC/C (from UniProt Q9UM11 1-496)	no binding		
PP2A α-catalytic subunit (from UniProt P67775 1-309) (enzyme)		binds	
Plk1 (from UniProt P53350 1-603) (enzyme)	binds		binds

From PMC6082843
